In PubChem BioAssay AID192 (DTP/NCI, 2004):
The list does not hold the whole screen: it gathers tests that were run many times, whatever their T/C, doses with no T/C, and many T/C values between a quarter and a half above the control. Other doses and runs of a compound stand elsewhere. T/C: endpoint of the treated group in % of that of the vehicle group. Some entries give survivors of the animals treated and no T/C: the source holds a T/C of zero for them, seemingly a mark for toxic or unscored doses. Some doses without a T/C left all or most animals alive at the check, yet need not have been tolerated: the source hardly ever lists a survival T/C far under the control, and the zero likely stands for such cases as well. Survivors were counted at the toxicity check, usually on the fifth day, unless a day is given; later deaths do not show. Schedules are NCI's codes, taken here to give the interval after Q, in days (D) or hours (H), and the number of doses after X. Where survival is the endpoint, the PubChem record calls one and a half times the control and up active, and a quarter to a half above the control has no call in these data; cut-offs in other NCI protocols can differ. Some entries hold several experiments; the values are given in rising order. Some T/C values carry the count of animals alive at the toxicity check (mostly the fifth day); where none is given, no animal had died by that day.

Tested on: BDF1 mice, B16 melanoma ip, median survival T/C
Assay: NCI In Vivo Anticancer Drug Screen. Data for tumor model B16 Melanoma (intraperitoneal) in B6D2F1 (BDF1) mice
Conditions: T/C endpoint: median survival time, higher T/C = longer survival
In short: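 Transplantable tumor model; survival or tumor size measured; reported as T/C, treated over vehicle control.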

[1] = dose: 100.0 mg/kg/injection, schedule: Q01DX009 (ip), vehicle: Klucel (hydroxypropylcellulose) (HPC)
[2] = dose: 100.0 mg/kg/injection, schedule: Q01DX009 (ip), vehicle: saline
[3] = dose: 100.0 mg/kg/injection, schedule: Q01DX009 (ip), vehicle: saline with Tween-80
[4] = dose: 200.0 mg/kg/injection, schedule: Q01DX009 (ip), vehicle: saline with Tween-80
[5] = dose: 400.0 mg/kg/injection, schedule: Q01DX009 (ip), vehicle: saline with Tween-80
[6] = dose: 200.0 mg/kg/injection, schedule: Q01DX009 (ip), vehicle: saline
[7] = dose: 50.0 mg/kg/injection, schedule: Q01DX009 (ip), vehicle: saline with Tween-80
[8] = dose: 50.0 mg/kg/injection, schedule: Q01DX009 (ip), vehicle: saline
[9] = dose: 200.0 mg/kg/injection, schedule: Q01DX009 (ip), vehicle: Klucel (hydroxypropylcellulose) (HPC)
[10] = dose: 400.0 mg/kg/injection, schedule: Q01DX009 (ip), vehicle: Klucel (hydroxypropylcellulose) (HPC)

SMILES: Cc1cccc(NC(=O)Nc2cccc3ccccc23)c1C
- survivor count (dose: 25.0 mg/kg/injection, schedule: Q01DX009 (ip), vehicle: Klucel (hydroxypropylcellulose) (HPC)): 10 of 10
- survivor count (dose: 50.0 mg/kg/injection, schedule: Q01DX009 (ip), vehicle: Klucel (hydroxypropylcellulose) (HPC)): 10 of 10
- survivor count [1]: 10 of 10

SMILES: CC1(C)N=C(N)N=C(N)N1c1ccc(OCCCNC(=O)Nc2cccc(S(=O)(=O)F)c2)c(Cl)c1
- T/C [2]: 130 % of control

SMILES: [N-]=[N+]=CC(=O)NCC(=O)NN
- T/C (dose: 100.0 mg/kg/injection, schedule: Q01DX009 (ip), vehicle: other): 127 % of control
- T/C (dose: 200.0 mg/kg/injection, schedule: Q01DX009 (ip), vehicle: other): 126 and 133 % of control
- T/C (dose: 300.0 mg/kg/injection, schedule: Q01DX009 (ip), vehicle: other): 126 % of control
- T/C (dose: 400.0 mg/kg/injection, schedule: Q01DX009 (ip), vehicle: other): 136 and 138 % of control
- T/C (dose: 400.0 mg/kg/injection, schedule: Q02DX005 (ip), vehicle: other): 133 % of control
- survivor count (dose: 500.0 mg/kg/injection, schedule: Q01DX009 (ip), vehicle: other): 6 of 6
- survivor count (dose: 600.0 mg/kg/injection, schedule: Q01DX009 (ip), vehicle: other): 5 of 6
- T/C (dose: 800.0 mg/kg/injection, schedule: Q02DX005 (ip), vehicle: other): 130 % of control

SMILES: CC1C=C(Br)C(=O)c2ccccc2N1S(C)(=O)=O (centres undefined)
- survivor count (dose: 75.0 mg/kg/injection, schedule: Q01DX009 (ip), vehicle: Klucel (hydroxypropylcellulose) (HPC)): 1 of 10
- survivor count (dose: 150.0 mg/kg/injection, schedule: Q01DX009 (ip), vehicle: Klucel (hydroxypropylcellulose) (HPC)): 0 of 10
- survivor count (dose: 300.0 mg/kg/injection, schedule: Q01DX009 (ip), vehicle: Klucel (hydroxypropylcellulose) (HPC)): 0 of 10

SMILES: [CH3][Sn]([CH3])([CH3])[O]C(=O)CCl
- survivor count (dose: 0.38 mg/kg/injection, schedule: Q01DX009 (ip), vehicle: saline): 10 of 10
- survivor count (dose: 0.75 mg/kg/injection, schedule: Q01DX009 (ip), vehicle: saline): 4 of 10
- survivor count (dose: 1.5 mg/kg/injection, schedule: Q01DX009 (ip), vehicle: saline): 10 of 10
- survivor count (dose: 3.0 mg/kg/injection, schedule: Q01DX009 (ip), vehicle: saline): 0 of 10

SMILES: COc1cccc(C(=O)c2ccncc2C)c1OC
- survivor count (dose: 200.0 mg/kg/injection, schedule: Q01DX009 (ip), vehicle: water): 9 of 10

SMILES: CC1=CC(=NN=c2cc(C)n([O-])c(C)c2)C=C(C)[N+]1=O
- T/C [3]: 132 % of control
- T/C [4]: 130 % of control
- survivor count [5]: 10 of 10

SMILES: Nc1ccn([C@@H](C=O)O[C@@H](C=O)CO)c(=O)n1
- survivor count [6]: 10 of 10

SMILES: [Cl][Ge]([Cl])([c]1ccccc1)[c]1ccccc1
- survivor count [1]: 6 of 10

SMILES: COc1ccc2nc3cc(Cl)ccc3c(NCCNCCNCCNc3c4ccc(Cl)cc4nc4ccc(OC)cc34)c2c1
- T/C (dose: 3.12 mg/kg/injection, schedule: Q01DX009 (ip), vehicle: saline with Tween-80): 131 % of control
- T/C (dose: 3.12 mg/kg/injection, schedule: Q01DX009 (ip), vehicle: saline): 138 % of control
- T/C (dose: 6.25 mg/kg/injection, schedule: Q01DX009 (ip), vehicle: saline with Tween-80): 141 % of control
- T/C (dose: 6.25 mg/kg/injection, schedule: Q01DX009 (ip), vehicle: saline): 132 % of control
- T/C (dose: 12.5 mg/kg/injection, schedule: Q01DX009 (ip), vehicle: saline with Tween-80): 131 % of control [9 of 10 alive]
- T/C (dose: 25.0 mg/kg/injection, schedule: Q01DX009 (ip), vehicle: saline with Tween-80): 132 % of control
- T/C [7]: 138 % of control
- T/C [8]: 133 % of control
- survivor count [1]: 7 of 10
- survivor count [3]: 8 of 10
- survivor count [2]: 3 of 10

SMILES: CCC(=O)O[C@H]1CC[C@H]2[C@@H]3CCC4=CC(=O)CC[C@]4(C)[C@H]3CC[C@]12C
- survivor count (dose: 160.0 mg/kg/injection, schedule: Q02DX009 (ip), vehicle: Klucel (hydroxypropylcellulose) (HPC)): 10 of 10
- survivor count (dose: 640.0 mg/kg/injection, schedule: Q02DX009 (ip), vehicle: Klucel (hydroxypropylcellulose) (HPC)): 10 of 10

SMILES: Cc1ccc(SSc2ccc(C)cc2[N+](=O)[O-])c([N+](=O)[O-])c1
- survivor count [9]: 10 of 10
- survivor count [10]: 7 of 10

SMILES: COC1C(CO)OC(n2cnc3c(=S)nc(N)[nH]c32)C1O (centres undefined)
- T/C [1]: 125 % of control
- survivor count [9]: 10 of 10
- survivor count [10]: 9 of 10

SMILES: O=C(Nc1ccc(C2=NCCN2)cc1)c1ccc(C(=O)Nc2ccc(C3=NCCN3)cc2)c(Cl)c1
- survivor count (dose: 32.0 mg/kg/injection, schedule: Q01DX009 (ip), vehicle: saline with Tween-80): 2 of 6
- survivor count [7]: 0 of 10
- survivor count (dose: 64.0 mg/kg/injection, schedule: Q01DX009 (ip), vehicle: saline with Tween-80): 0 of 6
- survivor count [3]: 0 of 10

SMILES: CC(C)[S][Pb]([c]1ccccc1)([c]1ccccc1)[c]1ccccc1
- survivor count (dose: 1.2 mg/kg/injection, schedule: Q01DX009 (ip), vehicle: gum acacia): 10 of 10
- survivor count (dose: 2.5 mg/kg/injection, schedule: Q01DX009 (ip), vehicle: gum acacia): 10 of 10
- survivor count (dose: 5.0 mg/kg/injection, schedule: Q01DX009 (ip), vehicle: gum acacia): 10 of 10
- survivor count (dose: 10.0 mg/kg/injection, schedule: Q01DX009 (ip), vehicle: gum acacia): 7 of 10
- survivor count (dose: 20.0 mg/kg/injection, schedule: Q01DX009 (ip), vehicle: gum acacia): 0 of 10

SMILES: CC1(C)COCN1COC1CCCCC1
- T/C [3]: 128 and 142 % of control
- T/C [4]: 125 % of control
- survivor count [5]: 0 of 10

SMILES: CC(C)=CC(=O)OC1C2C(C)=CC(=O)C(O)C2(C)C2C3(O)OCC24C(CC(=O)OC14)C(C)C3O (centres undefined)
- T/C (dose: 0.25 mg/kg/injection, schedule: Q01DX009 (ip), vehicle: saline with Tween-80): 129 % of control
- T/C (dose: 0.5 mg/kg/injection, schedule: Q01DX009 (ip), vehicle: saline with Tween-80): 131 % of control [9 of 10 alive]
- T/C (dose: 1.0 mg/kg/injection, schedule: Q01DX009 (ip), vehicle: saline with Tween-80): 149 % of control [9 of 10 alive]
- T/C (dose: 2.0 mg/kg/injection, schedule: Q01DX009 (ip), vehicle: saline with Tween-80): 133 % of control

SMILES: CNC(=O)ON(C(C)=O)C(=O)NC
- survivor count [8]: 8 of 10
- survivor count [2]: 1 of 10
- survivor count [6]: 0 of 10
- survivor count (dose: 400.0 mg/kg/injection, schedule: Q01DX009 (ip), vehicle: saline): 0 of 10

SMILES: CCOC(=O)c1ccc(NS(=O)c2ccccc2)cc1 (centres undefined)
- survivor count [4]: 9 of 10
- survivor count [5]: 8 of 10

SMILES: Cc1c(Cl)cccc1NC(=O)NCCC(C)C
- survivor count [3]: 10 of 10
- survivor count [4]: 10 of 10
- survivor count [5]: 9 of 10

SMILES: Cc1ccc([I+]c2ccc(C)cc2C)c(C)c1
- survivor count (dose: 3.0 mg/kg/injection, schedule: Q01DX009 (ip), vehicle: Klucel (hydroxypropylcellulose) (HPC)): 10 of 10
- survivor count (dose: 12.0 mg/kg/injection, schedule: Q01DX009 (ip), vehicle: Klucel (hydroxypropylcellulose) (HPC)): 10 of 10

SMILES: CS(=O)(=O)OCCCCCCCCCOS(C)(=O)=O
- survivor count [9]: 10 of 10

SMILES: C/C=C(\CC)C(=O)NC(N)=O
- survivor count (dose: 100.0 mg/kg/injection, schedule: Q04DX003 (ip), vehicle: Klucel (hydroxypropylcellulose) (HPC)): 10 of 10
- survivor count (dose: 400.0 mg/kg/injection, schedule: Q04DX003 (ip), vehicle: Klucel (hydroxypropylcellulose) (HPC)): 10 of 10

SMILES: C=C(OC)C(Nc1cc(OC)c(OC)cc1C(=O)OC1CC(O[C@@H]2C(=O)C(NC(=O)OC)=C3/C(=C\CSSSC)[C@]2(O)C#C/C=C\C#C[C@@H]3OC2OC(C)C(NOC3CC(O)C(SC)C(C)O3)C(O)C2OC2CC(OC)C(NCCC)CO2)OC(C)C1O)OC (some centres undefined)
- T/C (dose: 0.8 micrograms/kg/injection, schedule: Q04DX003 (ip), vehicle: methylcellulose (MC)): 148 % of control
